Laboratory results taken from patent publication US8993554B2, “Tetrahydroquinoline derivatives useful as bromodomain inhibitors” (GlaxoSmithKline LLC, priority 2011, dated 2015).
Some entries share one result that the patent states for a list of compounds. Some compounds share one range, which may span the group rather than tell each member.

Biological target: T1, Bromodomains BRD2, BRD3 and BRD4
T1 construct: fused on or other part: N-terminal six-His tag
Assay: Fluorescence Anisotropy Binding Assay / TR-FRET binding assay (one or more of these assays)
Set-up: species or system Human
Conditions: in one or more / at least one of the fluorescence anisotropy or TR-FRET assays (BRD2, BRD3, BRD4); assay and bromodomain not specified

Row | SMILES | pIC50
1 | CC(=O)N1c2ccc(-c3ccc(C(=O)NCCN(C)C)cc3)cc2[C@H](NC(=O)OC(C)C)C[C@@H]1C [Example 7, Isopropyl ((2S,4R)-1-acetyl-6-(4-((2-(dimethylamino)ethyl)carbamoyl)phenyl)-2-methyl-1,2,3,4-tetrahydroquinolin-4-yl)carbamate] | 7.0-7.5
2 | CC(=O)N1c2ccc(-c3ccc(C(=O)NCCN(C)C)cc3)cc2[C@H](Nc2ncccn2)C[C@@H]1C [Example 26, 4-((2S,4R)-1-acetyl-2-methyl-4-(pyrimidin-2-ylamino)-1,2,3,4-tetrahydroquinolin-6-yl)-N-(2-(dimethylamino)ethyl)benzamide] | 7.0-7.5
3 | CC(=O)N1c2ccc(-c3ccc(C(=O)NCCO)nc3)cc2[C@H](Nc2cnc(C#N)cn2)C[C@@H]1C [Example 49, 5-((2S,4R)-1-acetyl-4-((5-cyanopyrazin-2-yl)amino)-2-methyl-1,2,3,4-tetrahydroquinolin-6-yl)-N-(2-hydroxyethyl)picolinamide] | 7.0-7.5
4 | CC(=O)N1c2ccc(-c3ccc(C(=O)N4CCOCC4)nc3)cc2[C@H](Nc2ccc(Cl)cn2)C[C@@H]1C [Example 52, 1-((2S,4R)-4-((5-chloropyridin-2-yl)amino)-2-methyl-6-(6-(morpholine-4-carbonyl)pyridin-3-yl)-3,4-dihydroquinolin-1(2H)-yl)ethanone] | 7.0-7.5
5 | CC(=O)N1c2ccc(-c3ccc(C(=O)N4CCOCC4)cc3)cc2[C@H](Nc2ccc(C#N)cn2)C[C@@H]1C [Example 65, 6-(((2S,4R)-1-acetyl-2-methyl-6-(4-(morpholine-4-carbonyl)phenyl)-1,2,3,4-tetrahydroquinolin-4-yl)amino)nicotinonitrile] | 7.0-7.5
